Results on one substance are retold here after PMC8200294.

Protein sequences, listed by entry. Tags and fused reporters are not part of them. Lines headed by an entry give the natural chain unless they say otherwise; changes in a name come on top. Residues count along the entry.
UniProt P19022, residues 160-906: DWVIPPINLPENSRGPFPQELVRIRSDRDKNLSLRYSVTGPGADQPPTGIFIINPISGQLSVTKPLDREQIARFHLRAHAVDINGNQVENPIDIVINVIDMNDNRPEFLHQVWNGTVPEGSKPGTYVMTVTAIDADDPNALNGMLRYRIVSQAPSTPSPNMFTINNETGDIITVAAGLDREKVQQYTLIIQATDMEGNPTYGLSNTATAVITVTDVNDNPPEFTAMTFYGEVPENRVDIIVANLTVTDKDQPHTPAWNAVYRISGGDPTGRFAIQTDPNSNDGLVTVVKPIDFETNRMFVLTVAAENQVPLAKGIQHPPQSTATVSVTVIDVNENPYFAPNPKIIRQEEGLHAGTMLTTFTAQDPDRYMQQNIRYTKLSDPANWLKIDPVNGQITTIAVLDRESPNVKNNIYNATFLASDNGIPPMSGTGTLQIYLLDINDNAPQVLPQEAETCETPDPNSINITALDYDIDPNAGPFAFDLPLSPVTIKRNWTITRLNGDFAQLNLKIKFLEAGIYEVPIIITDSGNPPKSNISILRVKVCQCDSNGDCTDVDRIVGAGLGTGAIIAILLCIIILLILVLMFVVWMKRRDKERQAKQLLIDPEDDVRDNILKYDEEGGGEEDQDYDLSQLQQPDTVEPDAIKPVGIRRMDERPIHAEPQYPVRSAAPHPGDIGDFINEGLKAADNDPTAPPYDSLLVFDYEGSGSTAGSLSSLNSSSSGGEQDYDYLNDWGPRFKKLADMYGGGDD
UniProt P17302: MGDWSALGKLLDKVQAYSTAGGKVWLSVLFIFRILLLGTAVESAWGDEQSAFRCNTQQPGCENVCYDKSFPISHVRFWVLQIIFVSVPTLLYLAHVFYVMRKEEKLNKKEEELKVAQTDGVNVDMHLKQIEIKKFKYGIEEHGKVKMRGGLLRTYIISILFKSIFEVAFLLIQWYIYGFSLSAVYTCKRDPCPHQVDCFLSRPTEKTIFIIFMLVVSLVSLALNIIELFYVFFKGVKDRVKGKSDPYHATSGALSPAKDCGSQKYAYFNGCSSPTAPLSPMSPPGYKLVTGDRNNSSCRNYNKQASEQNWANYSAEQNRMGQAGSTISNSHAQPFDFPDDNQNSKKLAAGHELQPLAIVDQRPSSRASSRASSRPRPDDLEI

Experiment [1] concerns the target N-cadherin (CDH2), endogenous (human (endogenous in MDA-MB-231, T47D, human BM-MSCs, BM stroma and BM biopsy)) (UniProt P19022). The experiment is described as follows: co-IP; whole-cell lysates of BM-MSCs or BM stromal cells; IP with anti-CDH2 or IgG; blot with anti-Cx43.
Experiment [2] shares this target. The experiment in a line: co-IP; whole-cell lysates of unsorted breast cancer cells (MDA-MB-231, T47D); IP with anti-CDH2 or anti-Cx43 (IgG control) overnight at 4°C, magnetic beads, five washes in lysis buffer (50 mM Tris-HCl pH 7.4, 100 mM NaCl, 2 mM MgCl2, 10% glycerol, 1% NP-40); blot for Cx43 or CDH2.

Results are given in words; binding and its absence hold for the method and conditions named. Binding seen in cells or lysates may run through a third protein. Some entries that bind do so weakly or less than the wild type.

Take “connexin 43 (Cx43), endogenous (from UniProt P17302 1-382)”: the binding entry is reported as “binds” in experiment [1] and “binds weakly” in experiment [2].
